# Results as given in patent US20220265641A1, “SEROTONERGIC AGENT AND 5-HT1A-RECEPTOR ANTAGONIST” (ATLAS PHARMACEUTICALS BV, priority 2019, published 2022).
# At least one compound was matched to its structure with a doubt left.
# Test system: time to first ejaculation of male rats
# Test: Time until first ejaculation in male rats, 5-HT1A-receptor antagonist in conjunction with serotonergic agent (Example 3)
# Format: in vivo
# Details: antagonist in conjunction with Citalopram, Fluoxetine, Ifoxetine, Paroxetine or Zimelidine shortly before sexual activity, relative to the rat's own average without treatment
# Method: In a study with male rats, 10 different 5-HT1A-receptor antagonists are administered in conjunction with five different serotonergic agents shortly before sexual activity.
smiles,measurement,value
CN1CCC(=C2c3ccccc3C=Cc3ccccc32)CC1 [Cyproheptadine],Potential average increase in time to first ejaculation (%),78%
